# Measured values published in publication PMC5996148.
# By UniProt entry, the sequences of proteins in these tests, tags left out. Where a name states a change or a piece, a line headed by the entry shows the natural chain unless it says otherwise.
# UniProt Q96JL9: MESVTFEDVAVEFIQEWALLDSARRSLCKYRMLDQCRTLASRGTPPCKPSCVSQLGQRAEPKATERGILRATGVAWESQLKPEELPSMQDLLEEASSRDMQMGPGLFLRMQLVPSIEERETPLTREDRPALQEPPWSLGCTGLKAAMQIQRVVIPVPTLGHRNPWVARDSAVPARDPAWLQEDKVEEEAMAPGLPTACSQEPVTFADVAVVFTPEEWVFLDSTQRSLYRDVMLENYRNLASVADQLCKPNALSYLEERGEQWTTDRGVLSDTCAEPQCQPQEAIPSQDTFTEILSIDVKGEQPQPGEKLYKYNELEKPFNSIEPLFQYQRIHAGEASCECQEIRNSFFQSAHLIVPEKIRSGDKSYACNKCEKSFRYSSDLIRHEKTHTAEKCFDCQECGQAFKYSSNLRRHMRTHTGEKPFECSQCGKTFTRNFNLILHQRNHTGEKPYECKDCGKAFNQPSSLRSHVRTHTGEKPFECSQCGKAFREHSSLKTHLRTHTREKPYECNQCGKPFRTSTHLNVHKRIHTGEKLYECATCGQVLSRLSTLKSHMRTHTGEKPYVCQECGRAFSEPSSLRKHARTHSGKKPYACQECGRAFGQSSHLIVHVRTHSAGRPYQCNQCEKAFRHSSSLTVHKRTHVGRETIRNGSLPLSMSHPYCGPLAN
# UniProt Q8TF39: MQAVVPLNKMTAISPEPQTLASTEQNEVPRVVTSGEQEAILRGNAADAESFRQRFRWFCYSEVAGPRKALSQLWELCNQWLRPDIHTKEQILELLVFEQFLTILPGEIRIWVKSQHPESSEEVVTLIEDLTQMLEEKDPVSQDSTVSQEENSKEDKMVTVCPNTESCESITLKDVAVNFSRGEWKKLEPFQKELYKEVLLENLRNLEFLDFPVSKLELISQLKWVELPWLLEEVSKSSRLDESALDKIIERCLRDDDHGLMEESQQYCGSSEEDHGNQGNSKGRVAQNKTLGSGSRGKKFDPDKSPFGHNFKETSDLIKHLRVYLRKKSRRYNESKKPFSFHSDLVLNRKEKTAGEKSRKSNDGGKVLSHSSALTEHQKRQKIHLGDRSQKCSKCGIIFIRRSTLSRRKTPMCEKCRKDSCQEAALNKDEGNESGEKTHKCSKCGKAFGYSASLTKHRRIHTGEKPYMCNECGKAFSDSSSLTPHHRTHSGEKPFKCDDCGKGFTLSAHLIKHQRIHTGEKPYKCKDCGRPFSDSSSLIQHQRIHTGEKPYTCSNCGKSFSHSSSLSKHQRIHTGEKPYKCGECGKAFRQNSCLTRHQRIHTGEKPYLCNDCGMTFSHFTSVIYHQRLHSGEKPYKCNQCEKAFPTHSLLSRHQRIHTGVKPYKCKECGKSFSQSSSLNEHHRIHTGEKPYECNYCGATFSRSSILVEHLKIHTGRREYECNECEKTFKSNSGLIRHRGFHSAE
# This is one part of the list. For some assays here: Construct or isoform of the protein are uncertain.
# Experiments:
# Assay in all cases: protein microarray (ProtoArray v5.0), streptavidin-Alexa Fluor 647
# Conditions in all cases: 3'-biotin; 20 mM Tris (pH 7.5), 5 mM MgCl2, 100 mM KCl, 0.1% Tween-20, A/T-rich and random oligonucleotide blockers; temperature not stated; high values mean tight binding
# WDR34 (human) = tested on: WDR34 (human)
# WDR4 (human) = tested on: WDR4 (human)
# WFDC6 (human) = tested on: WFDC6 (human)
# WHSC1 = molecular target: T1, WHSC1 (UniProt O96028)
# T1 sequence: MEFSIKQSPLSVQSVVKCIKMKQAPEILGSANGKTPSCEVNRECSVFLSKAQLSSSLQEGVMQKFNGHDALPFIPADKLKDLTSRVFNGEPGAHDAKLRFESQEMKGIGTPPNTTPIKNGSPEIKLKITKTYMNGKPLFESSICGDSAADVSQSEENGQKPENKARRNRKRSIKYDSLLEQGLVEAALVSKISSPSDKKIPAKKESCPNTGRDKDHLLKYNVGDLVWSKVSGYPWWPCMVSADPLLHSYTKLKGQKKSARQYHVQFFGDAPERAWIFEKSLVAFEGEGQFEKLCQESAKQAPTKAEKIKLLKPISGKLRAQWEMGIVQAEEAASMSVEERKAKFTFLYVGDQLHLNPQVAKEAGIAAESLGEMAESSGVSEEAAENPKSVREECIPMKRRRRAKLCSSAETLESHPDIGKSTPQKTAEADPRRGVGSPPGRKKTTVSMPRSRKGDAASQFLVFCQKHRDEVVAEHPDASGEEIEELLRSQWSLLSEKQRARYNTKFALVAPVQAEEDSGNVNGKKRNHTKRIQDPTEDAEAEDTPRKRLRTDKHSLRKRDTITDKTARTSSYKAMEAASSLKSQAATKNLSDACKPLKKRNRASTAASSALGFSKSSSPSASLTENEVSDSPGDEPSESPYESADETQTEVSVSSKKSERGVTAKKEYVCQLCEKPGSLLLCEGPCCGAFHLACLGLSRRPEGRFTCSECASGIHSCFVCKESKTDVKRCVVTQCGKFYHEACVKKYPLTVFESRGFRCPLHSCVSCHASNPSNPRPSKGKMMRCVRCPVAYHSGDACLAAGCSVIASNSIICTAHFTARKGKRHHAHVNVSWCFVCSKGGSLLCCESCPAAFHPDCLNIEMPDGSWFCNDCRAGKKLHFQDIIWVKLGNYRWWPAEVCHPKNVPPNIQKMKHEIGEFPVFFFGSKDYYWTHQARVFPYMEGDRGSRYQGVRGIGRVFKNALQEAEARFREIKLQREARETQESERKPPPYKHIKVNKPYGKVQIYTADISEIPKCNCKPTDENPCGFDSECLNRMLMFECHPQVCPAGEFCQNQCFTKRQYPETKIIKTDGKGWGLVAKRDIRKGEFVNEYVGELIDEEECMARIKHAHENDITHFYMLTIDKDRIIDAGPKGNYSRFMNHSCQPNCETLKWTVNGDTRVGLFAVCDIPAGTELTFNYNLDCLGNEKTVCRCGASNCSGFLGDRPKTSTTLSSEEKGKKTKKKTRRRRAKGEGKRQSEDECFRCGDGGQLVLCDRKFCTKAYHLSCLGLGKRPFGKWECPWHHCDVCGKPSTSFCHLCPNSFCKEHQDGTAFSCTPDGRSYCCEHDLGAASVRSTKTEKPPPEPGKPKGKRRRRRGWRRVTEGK
# WTAP (human) = tested on: WTAP (human)
# [1] = tested on: Wilms tumor-associated protein (human)
# YKT6 (human) = tested on: YKT6 (human)
# YSK4 (human) = tested on: YSK4 (human)
# ZAP70 (human) = tested on: ZAP70 (human)
# ZBED2 (human) = tested on: ZBED2 (human)
# ZBTB25 (human) = tested on: ZBTB25 (human)
# ZBTB8OS (human) = tested on: ZBTB8OS (human)
# ZC3H3 = molecular target: T2, ZC3H3 (UniProt Q8IXZ2)
# T2 sequence: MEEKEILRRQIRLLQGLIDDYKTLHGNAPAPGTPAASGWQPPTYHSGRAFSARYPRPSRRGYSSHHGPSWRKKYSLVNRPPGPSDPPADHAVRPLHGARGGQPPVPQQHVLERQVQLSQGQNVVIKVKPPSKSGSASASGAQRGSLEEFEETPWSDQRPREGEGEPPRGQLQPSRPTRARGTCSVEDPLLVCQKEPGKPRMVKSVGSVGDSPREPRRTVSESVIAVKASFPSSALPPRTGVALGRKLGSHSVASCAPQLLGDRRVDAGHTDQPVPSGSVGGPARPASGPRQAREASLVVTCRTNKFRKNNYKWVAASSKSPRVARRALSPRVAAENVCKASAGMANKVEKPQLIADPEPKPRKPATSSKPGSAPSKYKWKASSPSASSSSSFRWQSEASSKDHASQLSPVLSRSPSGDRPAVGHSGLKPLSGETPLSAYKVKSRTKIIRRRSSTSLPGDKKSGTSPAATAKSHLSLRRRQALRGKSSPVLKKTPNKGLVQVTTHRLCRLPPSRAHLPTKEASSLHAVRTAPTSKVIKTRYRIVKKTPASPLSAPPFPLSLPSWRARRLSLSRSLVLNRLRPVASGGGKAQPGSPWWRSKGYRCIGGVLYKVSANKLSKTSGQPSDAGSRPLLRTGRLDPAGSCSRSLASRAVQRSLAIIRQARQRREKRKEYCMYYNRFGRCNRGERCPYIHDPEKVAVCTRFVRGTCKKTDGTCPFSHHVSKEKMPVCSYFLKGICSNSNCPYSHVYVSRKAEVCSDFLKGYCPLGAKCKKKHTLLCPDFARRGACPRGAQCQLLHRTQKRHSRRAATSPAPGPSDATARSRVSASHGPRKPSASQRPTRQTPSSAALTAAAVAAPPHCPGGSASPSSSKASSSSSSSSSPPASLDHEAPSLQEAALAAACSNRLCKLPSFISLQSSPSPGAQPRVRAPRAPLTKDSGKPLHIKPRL
# ZMYM5 (human) = tested on: ZMYM5 (human)
# ZMYM6 (human) = tested on: ZMYM6 (human)
# ZNF3 (human) = tested on: ZNF3 (human)
# ZNF333 = ZNF333 (UniProt Q96JL9)
# ZNF483 = ZNF483 (UniProt Q8TF39)
# ZNF616 (human) = tested on: ZNF616 (human)
# ZNF695 (human) = tested on: ZNF695 (human)
sequence,measurement,setting,value
GGGGACAGGGGTATGGGGAGGGG [G4-3 biotinylated (CtG)],binding signal,WDR34 (human),-0.333 z-score
same,binding signal,WDR4 (human),-0.326 z-score
same,binding signal,WFDC6 (human),-0.338 z-score
same,binding signal,WHSC1,3.27 z-score
same,binding signal,WTAP (human),-0.328 z-score
same,binding signal,[1],4.3 z-score
same,binding signal,YKT6 (human),-0.337 z-score
same,binding signal,YSK4 (human),-0.327 z-score
same,binding signal,ZAP70 (human),-0.295 z-score
same,binding signal,ZBED2 (human),-0.32 z-score
same,binding signal,ZBTB25 (human),-0.333 z-score
same,binding signal,ZBTB8OS (human),-0.328 z-score
same,binding signal,ZC3H3,3.23 z-score
same,binding signal,ZMYM5 (human),-0.328 z-score
same,binding signal,ZMYM6 (human),-0.339 z-score
same,binding signal,ZNF3 (human),-0.333 z-score
same,binding signal,ZNF333,-0.325 z-score
same,binding signal,ZNF483,-0.338 z-score
same,binding signal,ZNF616 (human),-0.323 z-score
same,binding signal,ZNF695 (human),-0.331 z-score

# Exported as tab-separated lines: entries from further up.
sequence	measurement	setting	value
GGGGACAGGGGTATGGGGAGGGG [G4-3 biotinylated (CtG)]	binding signal	WTAP (human)	-0.328 z-score
same	binding signal	ZMYM6 (human)	-0.339 z-score
